In patent publication EP4603105A1 (CHUGAI SEIYAKU KABUSHIKI KAISHA, priority 2022, dated 2024) one finds step yield data, which are given here for 1 substance.

A short description of the series: general procedure: Fmoc solid-phase peptide synthesis; CTC resin (2-chlorotrityl). To be noted: late stage modification step.

Strings that start with PEPTIDE1 are HELM notation: dots part the residues, brackets hold end groups and non-standard residues.

“PEPTIDE1{[MeLeu].I.[MeGly].[MeAhp-7br].[NbrPhe(4-CF3)].[MeGly].[Hph(4-CF3-35-F2)].[Hyp(3)(Tfp)].[cVal].[MeGly(cPent)].[MeAsp].[mor]}$PEPTIDE1,PEPTIDE1,1:R1-11:R3|PEPTIDE1,PEPTIDE1,4:R3-5:R3$$$V2.0” displayed a step yield of 33%.
